We go through 23 compounds from the supplement of paper PMC10735217.

The subject of the test is HEK293A TEAD-LUC reporter. Briefly: TEAD-luciferase reporter activity (YAP activation), robust Z score vs plate; higher = stronger YAP/TEAD activation. The conditions noted are these: 24 h.

Molecules are shown by their SMILES. Counter-ions that a name gives are not always drawn. The list shows a part of the results. Repeats in this data set agree poorly, so a single value says little.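 The human kidney-derived cells carry a stably integrated construct of eight TEAD-binding elements driving luciferase, read by luminescence in a drug-repurposing library screen. A compound counts as a hit when its signal is more than five robust Z scores above the plate mean.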

Regarding `CCOC(=O)[C@@H](N)CSC(=O)NC`, the TEAD-luciferase reporter activity (compound concentration: 200 nM) is inactive: -0.0377, the TEAD-luciferase reporter activity (compound concentration: 2 uM) was inactive: -0.283 and the TEAD-luciferase reporter activity (compound concentration: 10 uM) is inactive: 0.236.
On the same counts, the results for `COc1ccc(C2Cc3c(cccc3C(F)(F)F)N(CC3CCCN3)C(=O)C2OC(C)=O)cc1` (stereo not drawn) are inactive: 0.525, inactive: 0.364 and inactive: -0.439.
On the same counts, the results for `Cc1ncccc1-c1cnc(NCc2c(F)ccc3c2CCO3)n2cnnc12` [EED inhibitor-1] are inactive: -0.665, inactive: 0.239 and inactive: -0.179.
For `O=C(O)c1c[nH]c(=O)[nH]c1=O` [Orazamide orotate] the same measures were inactive: -0.964, inactive: -1.66 and inactive: -0.528.
With `CN(C)CC#CC=C1c2ccccc2C=Cc2ccccc21`, the TEAD-luciferase reporter activity reads like this: (compound concentration: 200 nM) inactive: -0.455; (compound concentration: 2 uM) inactive: -0.295; (compound concentration: 10 uM) inactive: -1.48.
On the same counts, the results for `O=C(O)c1cccc2c1Nc1cc(C(F)(F)F)ccc1S2` are inactive: 1.47, inactive: 1.65 and inactive: -0.132.
With `C[C@@H]1CN(CCCn2c3ccccc3c3ccccc32)C[C@H](C)N1` [Rimcazole hydrochloride], the TEAD-luciferase reporter activity (compound concentration: 2 uM) was inactive: -0.692.
Regarding `C[C@@H]1CN(CCCn2c3ccccc3c3ccccc32)C[C@H](C)N1` [Rimcazole], the TEAD-luciferase reporter activity is inactive: -1.54 (compound concentration: 200 nM) and inactive: 2.53 (compound concentration: 10 uM).
With `CC[N+](=C1C=C/C(=C(\c2cc(ccc2S(=O)(=O)[O-])S(=O)(=O)O)/c2ccc(cc2)N(CC)CC)/C=C1)CC`, the TEAD-luciferase reporter activity (compound concentration: 200 nM) is inactive: 2.7, the TEAD-luciferase reporter activity (compound concentration: 2 uM) is inactive: -1.19 and the TEAD-luciferase reporter activity (compound concentration: 10 uM) is inactive: -0.378.
For the compound `Clc1ccc(N2CCN(C/C=C/c3ccccc3)CC2)nn1` [lorcinadol], the TEAD-luciferase reporter activity reads like this: (compound concentration: 200 nM) inactive: -1.24; (compound concentration: 2 uM) inactive: -2.29; (compound concentration: 10 uM) inactive: 0.932.
For the compound `CCN(CC)C(C)CN1c2ccccc2Sc2ccccc21` (stereo not drawn) [Ethopropazine hydrochloride], the TEAD-luciferase reporter activity was inactive: -0.0954 (compound concentration: 200 nM) and active: 9.98 (compound concentration: 10 uM).
Consider `CCN(CC)C(C)CN1c2ccccc2Sc2ccccc21` (stereo not drawn), for which the TEAD-luciferase reporter activity (compound concentration: 2 uM) was inactive: 1.99.
For `O=C1NCCCN1CN1CCOCC1`, the TEAD-luciferase reporter activity reads like this: (compound concentration: 200 nM) inactive: -1.55; (compound concentration: 2 uM) inactive: -1.63; (compound concentration: 10 uM) inactive: -1.27.
As for `CC(C)C[C@H](NC(=O)[C@@H](Cc1ccccc1)NC(=O)[C@@H](Cc1ccc(O)cc1)NC(=O)CNC(=O)[C@@H](CCCNC(=N)N)NC(=O)[C@H](CO)NC(=O)[C@H](CCC(N)=O)NC(=O)[C@@H](CO)NC(=O)[C@@H](C)NC(=O)[C@@H](Cc1ccccc1)NC(=O)[C@H]1CCCN1C(=O)[C@H](CO)NC(=O)[C@H](CCC(N)=O)NC(=O)[C@@H](Cc1ccccc1)NC(=O)[C@@H](CCC(=O)O)NC(=O)[C@@H](CCC(=O)O)NC(=O)[C@H](CC(=O)O)NC(=O)[C@@H](NC(=O)[C@H](CCCNC(=N)N)NC(=O)[C@H](N)Cc1ccccc1)C(C)C)C(=O)N[C@@H](Cc1ccccc1)C(=O)N[C@@H](CCCNC(=N)N)C(=O)N1CCC[C@@H]1C(=O)N[C@H](CCCNC(=N)N)C(=O)N[C@H](CC(N)=O)C(N)=O`, the TEAD-luciferase reporter activity (compound concentration: 200 nM) is inactive: 0.609, the TEAD-luciferase reporter activity (compound concentration: 2 uM) is inactive: -0.401 and the TEAD-luciferase reporter activity (compound concentration: 10 uM) is inactive: 4.31.
Turning to `Cn1cc(-c2[nH]c3cc(NC(=O)[C@H](N)C4CCCCC4)cc4c3c2C=NNC4=O)cn1`, the TEAD-luciferase reporter activity (compound concentration: 200 nM) was inactive: -0.501, the TEAD-luciferase reporter activity (compound concentration: 2 uM) is inactive: -1.2 and the TEAD-luciferase reporter activity (compound concentration: 10 uM) is inactive: -1.46.
On the same counts, the results for `CCN(CC)CCOCCOC(c1c(C)cccc1C)c1c(C)cccc1C` are inactive: 0.612, inactive: -0.954 and inactive: 0.784.
For the compound `COC12CCC(c3ccc(COC(C)(C)C(=O)O)cc3)(CC1)CC2`, the TEAD-luciferase reporter activity by setting is: (compound concentration: 200 nM) inactive: -0.307; (compound concentration: 2 uM) inactive: 0.322; (compound concentration: 10 uM) inactive: -0.56.
On the same counts, the results for `C/C(=C\c1ccccc1)CN/N=C(\C)C(=O)O` are inactive: -1.67, inactive: -1.59 and inactive: 0.202.
For `CC(C)[C@H](NC(=O)[C@@H]1CSSC(C)(C)C(NC(=O)[C@@H](N)CC(=O)O)C(=O)N[C@@H](Cc2ccccc2)C(=O)N[C@H](Cc2c[nH]c3ccccc23)C(=O)NC(CCN)C(=O)N[C@@H](Cc2ccc(O)cc2)C(=O)N1)C(=O)O` (stereo partly drawn) the same measures were inactive: -0.873, inactive: -0.737 and inactive: -1.01.
On the same counts, the results for `CC1(C)CCC(CN2CCN(c3ccc(C(=O)NS(=O)(=O)c4ccc(NCC5CCOCC5)c([N+](=O)[O-])c4)c(Oc4cnc5[nH]ccc5c4)c3)CC2)=C(c2ccc(Cl)cc2)C1` [chronic lymphocytic leukaemia therapy, AbbVie] are inactive: 2.1, inactive: -1.57 and active: 5.8.
Take `CC(=O)SCC(CC(=O)c1ccc(C)cc1)C(=O)O` (stereo not drawn) [Esonarimod]: the TEAD-luciferase reporter activity was inactive: -0.86 (compound concentration: 200 nM), inactive: 2.25 (compound concentration: 2 uM) and inactive: 0.559 (compound concentration: 10 uM).
For `CCC(C(=O)O)c1ccc(N2Cc3ccccc3C2=O)cc1` (stereo not drawn) [indobufen] the same measures were inactive: -2.73, inactive: -0.539 and inactive: -0.195.
For `c1ccc(C(OC2CCN(CCCc3nnn[nH]3)CC2)c2ccccc2)cc1` the same measures were inactive: -3.69, inactive: -0.38 and inactive: 1.77.
